Broadly, the AC50 is the concentration giving half of the maximal activity seen. Broadly, the IC50 is the concentration that gives 50% inhibition.

By UniProt entry, the sequences of proteins in these tests, tags left out. Where a name states a change or a piece, a line headed by the entry shows the natural chain unless it says otherwise.
UniProt P50135: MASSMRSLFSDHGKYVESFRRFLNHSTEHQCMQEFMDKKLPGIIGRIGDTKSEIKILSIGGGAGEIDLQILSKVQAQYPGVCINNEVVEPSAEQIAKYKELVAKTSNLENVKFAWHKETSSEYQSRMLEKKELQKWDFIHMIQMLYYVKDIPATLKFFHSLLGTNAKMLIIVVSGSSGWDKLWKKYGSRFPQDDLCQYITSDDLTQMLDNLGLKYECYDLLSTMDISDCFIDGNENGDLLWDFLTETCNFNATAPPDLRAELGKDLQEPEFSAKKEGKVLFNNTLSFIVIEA
UniProt P11086: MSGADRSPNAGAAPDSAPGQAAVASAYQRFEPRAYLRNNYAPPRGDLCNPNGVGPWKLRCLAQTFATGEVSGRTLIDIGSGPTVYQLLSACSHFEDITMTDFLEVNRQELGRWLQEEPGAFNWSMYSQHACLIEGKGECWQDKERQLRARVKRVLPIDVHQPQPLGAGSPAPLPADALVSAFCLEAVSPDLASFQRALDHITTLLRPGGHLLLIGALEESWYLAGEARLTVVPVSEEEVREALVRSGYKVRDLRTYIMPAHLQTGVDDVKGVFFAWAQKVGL

Structures are written as SMILES. Several values for one entry are separate records, joined by “and”; a condition that tells them apart may be missing. Equal entries are not always repeated. The list shows a part of the results. These are further read-outs of the screen, such as a control signal, another cell line or another target. No call is given for them. For some assays here: Most of these compounds were active or inconclusive in the main read-out, so they are no random draw. For some assays here: Words in brackets tell the shape of the fitted curve; partial curves, single points and poor fits give uncertain potencies.

Experimental findings from PubChem BioAssay (NCATS) are described below.

Experiment [1] can be described thus: NCATS anti-infectives library activity on the primary C. elegans qHTS viability assay (AID 1745855). The following applies: C. elegans worm area imaging. The method in brief:
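Viability read-out is GFP fluorescence of PE254-GFP-FLuc C. elegans, measured by laser cytometry (488 nm) at day 0, 3 and 7. Ten L1 worms per well were incubated 7 days at 21 °C with compounds and bacterial capsules in S medium.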
A general note: Quantitative high-throughput screening tests each substance at several concentrations.

Experiment [2] can be described thus: qHTS drug screen for cell cycle checkpoint inhibitors in PARPi-resistant BRCA-mutant ovarian cancer cell lines. (AID 1963452). The following applies: PEO1/OlaR viability, CellTiter-Glo luminescence, 96 h. The method, boiled down: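 PEO1, PEO4 and PEO1/OlaR ovarian cancer cells, 600 per well, exposed 96 h at 37C to a dilution series. Viability read by CellTiter-Glo luminescence, normalized to DMSO and empty wells; activity summarized as Z-AUC.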

Experiment [3] in a line: qHTS Assay for Modulators of Human Peripheral Myelin Protein 22 (PMP22) Expression/Activity (AID 1967). The following applies: Cell-based PMP22 reporter, dual-color luciferase ratio. The method in brief: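 Engineered MSC80 cells, Pmp22-promoter green and EF-alpha red luciferase reporters; 24h compound treatment at 37 °C. Concentration-response fits on green, red and ratio signals, each overlap-corrected, with %Activity normalized to untreated wells.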

Experiment [4] is described as follows: Nrf2 qHTS screen for inhibitors: Validation (AID 493153). The following applies: A549 ARE-Fluc reporter, 18-24 h; AC50: CellTiter-Fluor fluorescence read, measured here: cytotoxicity CellTiter-Fluor AC50; viability change: measured here: cytotoxicity max response. The method, boiled down: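 Luminescence from an ARE-firefly luciferase reporter in A549 cells gives Nrf2 inhibition; an earlier CellTiter-Fluor fluorescent read flags cytotoxicity. Cells in 5% FBS OPTI-MEM received compound dilution series for 18-24 h at 37°C.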

In experiment [5] the target is Histamine N-methyltransferase (Homo sapiens) (UniProt P50135). Nature of the experiment: Confirmatory Screen for Target Class Profiling of Small Molecule Inhibitors of Methyltransferases (AID 1745852). The following applies: MTase-Glo luminescence, SAH detection, recombinant enzyme; measured here: HNMT inhibition potency.
For experiment [6], the target named is Phenylethanolamine N-methyltransferase (Homo sapiens) (UniProt P11086). Described as above. The following applies: MTase-Glo luminescence, SAH detection, recombinant enzyme; measured here: PNMT inhibition potency.
Experiment [7] can be described thus: qHTS assay for small molecule antagonists of peroxisome proliferator-activated receptor delta signaling (AID 588535).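 Note: cells co-treated with a PPAR-delta agonist as stimulator during compound exposure.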 The following applies: HEK293T PPARd-UAS-bla, beta-lactamase FRET ratio, 18 h; 460 nm channel. The method, boiled down: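 Antagonist-mode beta-lactamase reporter (GeneBLAzer PPAR-delta-UAS-bla) in HEK293T cells, 2% charcoal/dextran FBS, 4000 cells/well. Compound titrations, 18 h at 37 C; CCF4 ratio read, IC50 and efficacy from Hill fits.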

Experiment [8] can be described thus: qHTS assay for small molecule antagonists of peroxisome proliferator-activated receptor gamma signaling (AID 588537). The following applies: HEK293 PPARg-UAS-bla, beta-lactamase ratio, antagonist mode; measured here: W460 blue channel. The method, boiled down:
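PPARγ-UAS-bla HEK293 cells (3000/well) in 1% charcoal/dextran-stripped FBS are treated with compound, then stimulated with 50 nM rosiglitazone for 16 h at 37 °C. Read-out is CCF4 β-lactamase fluorescence after 2 h at RT. IC50 comes from Hill fits normalised to rosiglitazone and DMSO.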

A short description of experiment [9]: qHTS assay for small molecule agonists of retinoid X receptor alpha signaling (AID 588544). The following applies: HEK293T RXRa-UAS-bla, beta-lactamase reporter, 18 h; 530 nm emission.
Experiment [10] can be described thus: qHTS assay for small molecule antagonists of retinoid X receptor alpha signaling (AID 588546).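 Note: cells stimulated with 9-cis-retinoic acid as agonist; % is set by controls: 0 for no effect and ±100 for the full control effect.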 The following applies: HEK293T RXRa-UAS-bla, beta-lactamase ratio, antagonist mode; measured here: W530 green channel, cytotoxicity proxy. The method, boiled down:
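Beta-lactamase reporter inhibition, read as CCF4 fluorescence ratio (ex 405, em 460/530 nm) after 2 h at RT. HEK293T UAS-bla cells, 2500/well, were stimulated with 9-cis-RA at 500 or 100 nM final alongside test compound for 18 h at 37 C.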

The nature of experiment [11]: qHTS for identification of novel therapeutic agents for treatment of microphthalmiaassociated transcription factor (MiT) renal cell carcinoma (RCC) (AID 1963991). The following applies: TFE3-RCC viability, CellTiter-Glo, 48 h. The method in brief:
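Viability of three TFE3-fusion renal carcinoma lines measured by CellTiter-Glo after 48 h treatment with each of 1912 compounds at 11 concentrations. Responses scaled between DMSO (100%) and empty wells (0%) before curve fitting.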

The mark [12] stands for this setting: measured here: PEO1 parental viability.
Where [13] appears, read: day 7, measured here: worm number, day 3.

Turning to `O=S(=O)(F)Cc1ccccc1`, the AC50 in [1] (day 7, measured here: worm number) is 9.16 µM [falling, partial curve, poor fit]; in experiment [2] (setting [12]), 6.16 µM [rising, partial curve, poor fit].
In the case of `COc1ccc2[nH]c3c(c2c1)CCNC3`, the AC50 in experiment [3] (measured here: green reporter channel AC50, mouse Pmp22 promoter in mouse Schwann cells) was 95.3 µM [falling, single point]; in [3] (measured here: red reporter channel AC50, EF-alpha promoter control reporter in MSC80 mouse Schwann cells) it was 30.1 µM [rising, single point]. The same compound gave a viability change in experiment [4] of 11.8%. The IC50 in [5] is 24.3 µM [falling, partial curve].
As for `COc1cc(N2CCN(C)CC2)ccc1N`, in experiment [6], the IC50 is 17.1 µM [falling, partial curve].
On to `COc1ccc(-c2cc3c(cn2)CN(C)CCN3)cn1`, for which, in experiment [5], the IC50 is 44.1 µM [falling, partial curve].
As for `Clc1ccc([C@]23CNC[C@H]2C3)cc1Cl`, the half-inhibitory concentration (IC50) in experiment [6] is 6.07 µM [falling, full curve].
`C[C@@H](COc1ccc(Oc2ccccc2)cc1)Oc1ccccn1`: in experiment [1] (setting [13]), the concentration at half-maximal activity (AC50) was 10 µM [falling, full curve, poor fit].
For `C[C@@H]1C[C@@H]([C@H](O)CC2CC(=O)NC(=O)C2)C(=O)[C@@H](C)C1`, the max response in experiment [7] was -120%; in experiment [9] it was 1.98% and -13.5%; in experiment [10], -10.1% and -11% and -8.01%. Besides, the AC50 in experiment [8] is 17.8 µM [falling, partial curve, poor fit] and 1 µM [falling, full curve]; in experiment [1] (day 7, measured here: worm area, day 3), 70.8 µM [falling, single point]; in experiment [1] (setting [13]), 56.2 µM [falling, single point]; in experiment [2] (setting [12]) it was 1.23 µM [falling, full curve]; in experiment [2] (measured here: PEO4 viability) it was 1.23 µM [falling, full curve]; in experiment [11] (measured here: UOK124 cell viability), 0.118 µM [falling, full curve]. Moreover, the AC50 in experiment [11] (measured here: UOK145 cell viability) was 0.187 µM [falling, full curve].
